Test results published in patent publication US20210347823A1 (Massachusetts Institute of Technology, priority 2018, published 2021).
Where no end group is shown, it is not given here.

system: not listed separately; experiment: peptide made by a vendor (peptide synthesis; Rink Amide resin, 0.52 mmol g^-1; HBTU); conditions: whole synthesis, 220 nm

Row | Substance | final HPLC purity [%]
1 | ALGTILGLLKSL-NH2 | 95
2 | IAGTILGLLKSL-NH2 | 96
3 | ILATILGLLKSL-NH2 | 96
4 | ILGAILGLLKSL-NH2 | 93
5 | ILGTALGLLKSL-NH2 | 94
6 | ILGTIAGLLKSL-NH2 (C-terminal amide) | 93
7 | ILGTILALLKSL-NH2 | 92
8 | ILGTILGALKSL-NH2 | 93
9 | ILGTILGLAKSL-NH2 | 90
10 | ILGTILGLLASL-NH2 | 92
11 | ILGTILGLLKAL-NH2 | 95
12 | ILGTILGLLKSA-NH2 | 92

system: not listed separately; experiment: general procedure: Fmoc solid-phase peptide synthesis; Rink Amide resin, 0.52 mmol g^-1; HBTU; conditions: whole synthesis, 220 nm

Row | Substance | final HPLC purity [%]
13 | GLGTILGLLKSL-NH2 | 99
14 | H-ILGTILGLLKSL-NH2 | 99
15 | H-ILGTILKLLKSL-NH2 | 99
16 | ILETKLGLLKSE-NH2 | 99
17 | ILGKILGLLKSL-NH2 | 98
18 | ILGTILGLFKSL-NH2 | 99
19 | ILGTILGLLKSL-NH2 | 99
20 | ILGTKLGLLKSL-NH2 | 99
21 | ILGTLLGLKKSL-NH2 | 99

system: human red blood cells; experiment: Hemolytic activity assay; type: cell-based; conditions: human erythrocytes vs average MIC
Experimental: FIGS. 6A-6B. Hemolysis and resistance to protease-mediated degradation of engineered peptides. FIG. 6A. Schematic of experimental design and hemolytic assay results of Pol-CP—NH2 and derivatives, where hemolytic activity was evaluated by incubating the peptides (0.1-100 μmol L^−1) with human red blood cells in PBS at room temperature for 1 h. Experiments were performed in triplicate, (*p<0.05). FIG. 6B. Resistance to degradation of Pol-CP—NH2 and analogs exposed to fetal bovine serum (FBS) proteases for 6 h. Experiments were done in triplicate.
Hemolytic Activity Assays. Human erythrocytes were collected and washed three times by centrifugation at 300×g with PBS (pH 7.4). After the last centrifugation, the cells were resuspended in PBS pH 7.4. Aliquots at a concentration of 0.1 to 100 ? mol L^−1 of the peptides were added to the 96-well microplate, where in each well containing 50 ? L of a suspension of erythrocytes to 0.4% in a phosphate saline buffer (10 mmol L^−1 Na2HPO4, 1.8 mmol L^−1 […], pH 7.4, 137 mmol L^−1 NaCl and 2.7 mmol L^−1KCl). After that, the samples were incubated at room temperature for 1 h. Hemolysis was determined by reading absorbance at 405 nm of each well in a bed of plates. 1% SDS in PBS solution was used as positive control (Shalel S. et al., J. Colloid Interface Sci. 252, 66-76 (2002); Love L. J. Cell. Comp. Physiol. 36, 133-148 (1950)) and as negative control was used PBS only. MHC was defined as the maximal non-hemolytic concentration.

Row | Substance | SI (Selectivity Index = HC50/MICaverage)
22 | H-ILGTILGLLKSL-NH2 [WT, ILGTILGLLKSL-NH2, reference compound] | 3.1
23 | H-ILGTILKLLKSL-NH2 [Peptide 16, ILGTILKLLKSL-NH2] | 9.2
24 | ILGTILGLFKSL-NH2 [Peptide 17, ILGTILGLFKSL-NH2] | 2.5
